Data as given in PMC6978386.
No constants are given. Whether binding was seen depends on the method and setting. Binding seen in cells or lysates may run through a third protein. Some results given as binding are weak or reduced against the parent protein; the word gives no strength.

By UniProt entry, the sequences of proteins in these tests, tags left out.
UniProt P46934: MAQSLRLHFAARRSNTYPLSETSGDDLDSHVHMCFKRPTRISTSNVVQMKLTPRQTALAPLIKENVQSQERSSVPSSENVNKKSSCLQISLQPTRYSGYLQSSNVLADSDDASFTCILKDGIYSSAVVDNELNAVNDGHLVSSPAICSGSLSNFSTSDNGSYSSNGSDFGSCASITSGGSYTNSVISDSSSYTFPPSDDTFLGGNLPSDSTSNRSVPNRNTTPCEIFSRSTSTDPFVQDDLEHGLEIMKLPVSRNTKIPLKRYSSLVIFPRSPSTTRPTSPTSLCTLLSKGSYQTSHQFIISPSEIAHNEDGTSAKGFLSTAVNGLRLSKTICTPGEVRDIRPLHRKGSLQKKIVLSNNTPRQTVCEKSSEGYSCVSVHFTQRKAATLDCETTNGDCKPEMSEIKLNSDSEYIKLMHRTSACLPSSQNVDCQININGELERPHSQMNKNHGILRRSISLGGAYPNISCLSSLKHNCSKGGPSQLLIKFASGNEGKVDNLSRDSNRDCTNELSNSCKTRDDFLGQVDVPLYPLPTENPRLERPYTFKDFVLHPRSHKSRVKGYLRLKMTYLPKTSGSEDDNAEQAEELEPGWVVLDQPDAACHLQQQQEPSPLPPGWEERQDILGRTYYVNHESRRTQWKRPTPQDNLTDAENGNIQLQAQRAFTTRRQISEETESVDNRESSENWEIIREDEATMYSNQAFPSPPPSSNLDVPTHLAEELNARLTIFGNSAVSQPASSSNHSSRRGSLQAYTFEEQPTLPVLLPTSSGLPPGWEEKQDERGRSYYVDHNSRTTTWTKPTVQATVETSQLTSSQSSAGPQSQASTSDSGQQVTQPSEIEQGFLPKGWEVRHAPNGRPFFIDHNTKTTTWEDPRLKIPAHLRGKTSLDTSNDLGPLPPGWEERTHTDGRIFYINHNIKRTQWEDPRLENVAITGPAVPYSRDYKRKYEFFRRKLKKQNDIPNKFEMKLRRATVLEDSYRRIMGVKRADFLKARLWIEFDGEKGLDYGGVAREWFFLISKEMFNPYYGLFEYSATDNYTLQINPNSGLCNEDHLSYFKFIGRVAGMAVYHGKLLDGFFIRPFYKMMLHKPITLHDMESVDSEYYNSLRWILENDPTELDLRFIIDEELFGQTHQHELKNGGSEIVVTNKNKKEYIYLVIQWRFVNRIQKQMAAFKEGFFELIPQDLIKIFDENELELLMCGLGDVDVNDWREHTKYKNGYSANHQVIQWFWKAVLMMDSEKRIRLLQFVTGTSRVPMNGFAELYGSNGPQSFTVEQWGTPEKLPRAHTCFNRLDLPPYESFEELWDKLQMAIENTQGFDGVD
UniProt P21796: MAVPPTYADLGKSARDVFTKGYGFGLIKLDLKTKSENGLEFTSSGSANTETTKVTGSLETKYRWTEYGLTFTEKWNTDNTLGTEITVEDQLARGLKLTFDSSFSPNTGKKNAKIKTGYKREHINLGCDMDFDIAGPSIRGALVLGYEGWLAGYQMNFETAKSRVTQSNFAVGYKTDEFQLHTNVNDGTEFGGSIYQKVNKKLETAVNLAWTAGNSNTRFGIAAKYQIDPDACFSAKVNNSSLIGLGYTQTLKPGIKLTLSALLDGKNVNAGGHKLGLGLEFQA

Biological target: Neuronal precursor cell-expressed developmentally downregulated 4 (Nedd4), endogenous (human (endogenous in A375)) (UniProt P46934)
Test: co-IP; endogenous proteins, A375 whole-cell lysate (1% NP40 lysis buffer, 300 mM NaCl); IP with anti-Nedd4 or control IgG, immunoblot; cells treated with DMSO or erastin (5 µM, 4 h), then MG132 for 4 h

binding: binds
Substance: voltage-dependent anion channel 1 (VDAC1), endogenous (from UniProt P21796 1-283)
